Laboratory results as given in the supplement of paper PMC10849652.
The list shows a part of the results.

Protein sequences, listed by entry. Tags and fused reporters are not part of them. Lines headed by an entry give the natural chain unless they say otherwise; changes in a name come on top.
UniProt Q7Z6Z7, whole entry, looked up: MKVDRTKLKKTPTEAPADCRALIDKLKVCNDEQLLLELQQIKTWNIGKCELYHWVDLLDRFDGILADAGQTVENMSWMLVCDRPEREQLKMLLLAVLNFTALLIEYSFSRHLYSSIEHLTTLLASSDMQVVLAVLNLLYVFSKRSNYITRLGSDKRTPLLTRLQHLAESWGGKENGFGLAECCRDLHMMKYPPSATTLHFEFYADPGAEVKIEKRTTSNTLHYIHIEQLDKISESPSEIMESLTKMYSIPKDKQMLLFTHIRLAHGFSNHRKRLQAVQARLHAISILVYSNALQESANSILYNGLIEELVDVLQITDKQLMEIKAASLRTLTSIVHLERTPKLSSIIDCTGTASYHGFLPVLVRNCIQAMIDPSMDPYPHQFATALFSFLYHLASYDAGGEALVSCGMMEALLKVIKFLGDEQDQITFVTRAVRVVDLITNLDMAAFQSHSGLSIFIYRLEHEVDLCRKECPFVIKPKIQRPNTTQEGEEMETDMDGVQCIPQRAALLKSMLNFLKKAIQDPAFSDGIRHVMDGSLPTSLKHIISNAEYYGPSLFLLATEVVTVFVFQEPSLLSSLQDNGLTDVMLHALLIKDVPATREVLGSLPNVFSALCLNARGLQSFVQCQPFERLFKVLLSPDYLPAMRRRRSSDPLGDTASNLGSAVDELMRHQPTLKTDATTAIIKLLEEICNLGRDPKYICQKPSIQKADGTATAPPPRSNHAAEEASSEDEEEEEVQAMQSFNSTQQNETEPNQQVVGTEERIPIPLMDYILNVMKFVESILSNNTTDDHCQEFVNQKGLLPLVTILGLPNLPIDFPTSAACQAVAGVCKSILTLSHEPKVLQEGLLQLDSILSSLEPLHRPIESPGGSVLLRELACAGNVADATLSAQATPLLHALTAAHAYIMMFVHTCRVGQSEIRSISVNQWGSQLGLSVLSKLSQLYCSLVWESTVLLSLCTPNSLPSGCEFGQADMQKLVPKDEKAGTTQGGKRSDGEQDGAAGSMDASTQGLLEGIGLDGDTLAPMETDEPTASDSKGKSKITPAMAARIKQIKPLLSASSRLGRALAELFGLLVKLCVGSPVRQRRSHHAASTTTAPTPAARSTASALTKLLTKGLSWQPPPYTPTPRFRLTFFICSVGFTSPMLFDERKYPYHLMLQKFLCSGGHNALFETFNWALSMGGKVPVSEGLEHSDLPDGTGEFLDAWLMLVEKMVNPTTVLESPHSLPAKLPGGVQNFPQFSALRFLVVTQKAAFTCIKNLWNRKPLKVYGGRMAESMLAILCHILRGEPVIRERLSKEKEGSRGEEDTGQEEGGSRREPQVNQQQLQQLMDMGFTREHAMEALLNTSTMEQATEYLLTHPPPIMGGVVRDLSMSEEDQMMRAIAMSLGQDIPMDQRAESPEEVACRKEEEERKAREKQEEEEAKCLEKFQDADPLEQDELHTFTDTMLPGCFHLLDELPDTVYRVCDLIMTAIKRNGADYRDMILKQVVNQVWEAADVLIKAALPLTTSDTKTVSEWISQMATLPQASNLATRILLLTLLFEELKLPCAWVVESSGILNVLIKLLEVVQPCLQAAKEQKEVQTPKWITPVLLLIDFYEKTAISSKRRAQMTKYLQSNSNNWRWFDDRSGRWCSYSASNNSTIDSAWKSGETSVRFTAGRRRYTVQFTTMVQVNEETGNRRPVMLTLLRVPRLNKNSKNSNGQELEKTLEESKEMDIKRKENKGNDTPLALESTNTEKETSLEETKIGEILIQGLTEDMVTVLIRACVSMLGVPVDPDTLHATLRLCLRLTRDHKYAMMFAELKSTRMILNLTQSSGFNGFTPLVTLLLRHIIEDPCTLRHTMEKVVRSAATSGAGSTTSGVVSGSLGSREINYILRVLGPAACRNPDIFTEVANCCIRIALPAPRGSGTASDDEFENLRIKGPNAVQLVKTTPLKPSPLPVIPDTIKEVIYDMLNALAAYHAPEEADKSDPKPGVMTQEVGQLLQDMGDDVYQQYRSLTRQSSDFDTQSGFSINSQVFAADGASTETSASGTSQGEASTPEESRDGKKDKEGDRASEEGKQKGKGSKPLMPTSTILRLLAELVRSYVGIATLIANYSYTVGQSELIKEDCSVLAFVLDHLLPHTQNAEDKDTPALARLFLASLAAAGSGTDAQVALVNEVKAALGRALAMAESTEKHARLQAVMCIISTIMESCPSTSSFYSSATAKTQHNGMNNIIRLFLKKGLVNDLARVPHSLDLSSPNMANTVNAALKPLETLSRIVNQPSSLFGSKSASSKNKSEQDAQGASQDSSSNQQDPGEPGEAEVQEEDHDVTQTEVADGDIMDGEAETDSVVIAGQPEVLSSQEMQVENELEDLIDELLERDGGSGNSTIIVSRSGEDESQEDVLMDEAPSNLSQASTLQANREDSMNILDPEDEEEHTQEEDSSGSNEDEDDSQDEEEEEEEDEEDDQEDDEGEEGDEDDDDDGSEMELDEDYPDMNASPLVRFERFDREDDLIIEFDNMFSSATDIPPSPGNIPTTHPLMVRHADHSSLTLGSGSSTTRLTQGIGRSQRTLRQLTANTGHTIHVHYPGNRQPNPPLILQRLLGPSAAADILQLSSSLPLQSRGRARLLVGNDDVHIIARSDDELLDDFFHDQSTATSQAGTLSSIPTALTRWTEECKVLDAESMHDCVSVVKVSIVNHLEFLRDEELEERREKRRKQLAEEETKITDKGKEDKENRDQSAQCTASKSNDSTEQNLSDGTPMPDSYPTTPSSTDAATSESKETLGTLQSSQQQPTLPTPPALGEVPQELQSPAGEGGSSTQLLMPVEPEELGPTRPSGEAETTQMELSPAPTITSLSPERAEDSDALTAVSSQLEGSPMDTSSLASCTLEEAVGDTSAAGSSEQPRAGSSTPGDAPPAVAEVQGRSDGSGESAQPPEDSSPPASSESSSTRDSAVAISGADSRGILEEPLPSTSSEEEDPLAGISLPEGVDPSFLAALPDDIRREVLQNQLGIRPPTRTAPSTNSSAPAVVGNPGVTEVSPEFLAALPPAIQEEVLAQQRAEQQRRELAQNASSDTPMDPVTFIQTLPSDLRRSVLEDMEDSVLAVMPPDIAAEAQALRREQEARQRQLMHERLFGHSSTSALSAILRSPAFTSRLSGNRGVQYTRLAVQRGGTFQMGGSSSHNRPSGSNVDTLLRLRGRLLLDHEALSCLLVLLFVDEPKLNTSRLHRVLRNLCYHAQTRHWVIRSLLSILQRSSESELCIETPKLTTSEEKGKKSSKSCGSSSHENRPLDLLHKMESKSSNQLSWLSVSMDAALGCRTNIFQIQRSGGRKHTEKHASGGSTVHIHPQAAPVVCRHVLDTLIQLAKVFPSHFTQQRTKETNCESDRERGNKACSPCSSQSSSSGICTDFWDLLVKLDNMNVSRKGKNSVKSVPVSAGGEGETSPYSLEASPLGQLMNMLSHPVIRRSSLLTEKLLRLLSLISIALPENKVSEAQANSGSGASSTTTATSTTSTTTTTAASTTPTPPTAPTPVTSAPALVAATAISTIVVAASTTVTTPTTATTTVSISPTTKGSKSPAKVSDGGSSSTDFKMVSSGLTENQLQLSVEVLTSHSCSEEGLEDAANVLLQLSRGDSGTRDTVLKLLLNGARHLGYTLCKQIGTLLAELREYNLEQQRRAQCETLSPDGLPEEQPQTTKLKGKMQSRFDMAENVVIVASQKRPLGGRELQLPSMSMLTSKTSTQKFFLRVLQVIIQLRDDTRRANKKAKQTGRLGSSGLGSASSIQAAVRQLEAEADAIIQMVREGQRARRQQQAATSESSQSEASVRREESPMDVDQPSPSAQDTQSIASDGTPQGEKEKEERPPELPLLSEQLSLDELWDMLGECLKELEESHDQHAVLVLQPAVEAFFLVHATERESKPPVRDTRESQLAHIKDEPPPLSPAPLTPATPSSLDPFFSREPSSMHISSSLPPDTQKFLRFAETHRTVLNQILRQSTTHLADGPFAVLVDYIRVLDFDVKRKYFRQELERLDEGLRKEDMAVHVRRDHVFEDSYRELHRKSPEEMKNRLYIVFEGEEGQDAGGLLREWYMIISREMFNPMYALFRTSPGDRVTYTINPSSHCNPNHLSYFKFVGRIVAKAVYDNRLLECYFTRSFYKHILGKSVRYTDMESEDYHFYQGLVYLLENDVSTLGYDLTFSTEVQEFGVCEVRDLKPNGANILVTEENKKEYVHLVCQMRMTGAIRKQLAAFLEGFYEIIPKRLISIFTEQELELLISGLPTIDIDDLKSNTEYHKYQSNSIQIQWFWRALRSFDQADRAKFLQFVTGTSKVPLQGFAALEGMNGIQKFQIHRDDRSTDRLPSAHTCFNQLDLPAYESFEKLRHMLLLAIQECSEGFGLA
UniProt Q9UK53: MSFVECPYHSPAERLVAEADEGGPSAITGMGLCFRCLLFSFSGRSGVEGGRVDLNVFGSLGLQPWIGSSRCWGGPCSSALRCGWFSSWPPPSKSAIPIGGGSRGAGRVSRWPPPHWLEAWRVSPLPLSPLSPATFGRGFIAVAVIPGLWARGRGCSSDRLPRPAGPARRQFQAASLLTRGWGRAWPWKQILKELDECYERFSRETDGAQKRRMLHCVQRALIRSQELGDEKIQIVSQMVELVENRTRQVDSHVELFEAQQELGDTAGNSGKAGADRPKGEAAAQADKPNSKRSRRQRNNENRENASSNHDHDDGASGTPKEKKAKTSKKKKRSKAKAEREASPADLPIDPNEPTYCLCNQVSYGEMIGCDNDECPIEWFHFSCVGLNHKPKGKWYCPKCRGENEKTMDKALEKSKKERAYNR
UniProt Q12906, whole entry, looked up: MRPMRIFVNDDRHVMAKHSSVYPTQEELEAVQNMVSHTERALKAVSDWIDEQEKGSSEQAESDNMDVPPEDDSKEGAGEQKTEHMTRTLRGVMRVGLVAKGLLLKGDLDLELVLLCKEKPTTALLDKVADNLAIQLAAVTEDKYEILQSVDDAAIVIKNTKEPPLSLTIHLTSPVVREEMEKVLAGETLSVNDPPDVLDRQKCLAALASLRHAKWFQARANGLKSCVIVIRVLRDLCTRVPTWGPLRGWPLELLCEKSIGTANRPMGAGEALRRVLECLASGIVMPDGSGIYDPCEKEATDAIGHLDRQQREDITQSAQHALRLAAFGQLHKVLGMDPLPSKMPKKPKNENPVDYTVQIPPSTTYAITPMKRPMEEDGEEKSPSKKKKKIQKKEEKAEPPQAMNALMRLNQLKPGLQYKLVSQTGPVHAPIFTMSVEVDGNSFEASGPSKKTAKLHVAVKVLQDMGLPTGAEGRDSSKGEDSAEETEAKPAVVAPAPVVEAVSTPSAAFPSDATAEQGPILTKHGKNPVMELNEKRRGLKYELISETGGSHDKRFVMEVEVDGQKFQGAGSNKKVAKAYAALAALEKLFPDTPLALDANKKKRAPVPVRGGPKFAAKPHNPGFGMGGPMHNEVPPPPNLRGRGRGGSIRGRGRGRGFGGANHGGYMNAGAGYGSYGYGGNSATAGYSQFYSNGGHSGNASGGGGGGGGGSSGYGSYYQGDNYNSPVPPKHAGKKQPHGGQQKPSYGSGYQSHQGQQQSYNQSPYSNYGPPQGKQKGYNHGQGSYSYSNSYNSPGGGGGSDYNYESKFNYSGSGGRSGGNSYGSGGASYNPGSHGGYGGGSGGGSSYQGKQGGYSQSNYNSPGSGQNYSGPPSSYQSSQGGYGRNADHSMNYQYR
UniProt Q96F46, whole entry, looked up: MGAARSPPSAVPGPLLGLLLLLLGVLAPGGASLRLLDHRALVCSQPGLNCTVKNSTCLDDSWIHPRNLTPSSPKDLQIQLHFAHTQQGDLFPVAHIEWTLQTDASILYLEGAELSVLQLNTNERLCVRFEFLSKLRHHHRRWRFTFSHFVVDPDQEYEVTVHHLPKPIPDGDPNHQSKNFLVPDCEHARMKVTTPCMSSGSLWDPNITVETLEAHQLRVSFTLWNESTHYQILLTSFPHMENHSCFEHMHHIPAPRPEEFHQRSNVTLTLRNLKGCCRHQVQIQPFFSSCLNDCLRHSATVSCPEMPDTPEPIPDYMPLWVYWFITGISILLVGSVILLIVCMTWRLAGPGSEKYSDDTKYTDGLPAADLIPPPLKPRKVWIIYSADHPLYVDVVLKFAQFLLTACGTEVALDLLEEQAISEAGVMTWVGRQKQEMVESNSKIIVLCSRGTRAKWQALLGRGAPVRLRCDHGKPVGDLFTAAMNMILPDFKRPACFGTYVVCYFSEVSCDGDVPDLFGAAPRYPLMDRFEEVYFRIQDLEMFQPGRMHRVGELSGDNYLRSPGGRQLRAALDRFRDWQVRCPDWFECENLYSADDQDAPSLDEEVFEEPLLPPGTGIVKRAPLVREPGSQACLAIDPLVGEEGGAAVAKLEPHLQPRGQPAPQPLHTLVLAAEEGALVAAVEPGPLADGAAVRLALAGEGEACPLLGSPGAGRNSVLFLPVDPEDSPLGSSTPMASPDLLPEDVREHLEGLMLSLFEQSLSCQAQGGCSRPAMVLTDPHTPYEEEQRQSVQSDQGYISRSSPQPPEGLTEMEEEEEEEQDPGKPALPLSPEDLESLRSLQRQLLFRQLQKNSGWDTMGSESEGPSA

Key:
Test in all cases: log2 fold change, soluble protein after heating vs DMSO (PISA); higher = thermal stabilisation; K562 lysate, 10 uM; active = over 0.2 and 3.5 SD of the protein, either way, in both replicates (recomputed)
nilotinib = compound: Cc1cn(-c2cc(NC(=O)c3ccc(C)c(Nc4nccc(-c5cccnc5)n4)c3)cc(C(F)(F)F)c2)cn1 [nilotinib]
How it was run: (§1)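 Dounce homogenisation of K562 pellets in PBS pH 7.4 with 1 mM MgCl2 produced a crude extract, used at 1 mg/mL protein. Exposure to 10 μM compound lasted 30 min, and aliquots were then heated for 3 min across 48°C-58°C, pooled and brought to 0.5% NP-40 at 4°C. The supernatant after 21,000xg for 90 min was quantified by TMTpro 16plex LC-MS/MS with channel sums equalised. Duplicate values are given as log-two fold change in thermal stability relative to solvent controls.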

[1] = compound: Cc1nc(Nc2n[nH]c3c2CN(C(=O)N[C@H](CN(C)C)c2ccccc2)C3(C)C)c2sccc2n1
How it was run: as §1

dasatinib = compound: Cc1nc(Nc2ncc(C(=O)Nc3c(C)cccc3Cl)s2)cc(N2CCN(CCO)CC2)n1 [dasatinib]
How it was run: as §1

[2] = compound: Cc1ncc(-c2ccnc(Nc3ccc(S(C)(=O)=O)cc3)n2)n1C(C)C
How it was run: as §1

[3] = compound: Cn1cc(-c2ccc3c(c2)CCN3C(=O)Cc2cccc(C(F)(F)F)c2)c2c(N)ncnc21
How it was run: as §1

quisinostat = compound: Cn1cc(CNCC2CCN(c3ncc(C(=O)NO)cn3)CC2)c2ccccc21 [quisinostat]
How it was run: as §1

tipifarnib = compound: Cn1cncc1[C@@](N)(c1ccc(Cl)cc1)c1ccc2c(c1)c(-c1cccc(Cl)c1)cc(=O)n2C [tipifarnib]
How it was run: as §1

[4] = compound: NC(=O)Nc1cc(-c2cccc(F)c2)sc1C(=O)N[C@H]1CCCNC1
How it was run: as §1

[5] = compound: NC(=O)c1cnc(N[C@@H]2CCCC[C@@H]2N)nc1Nc1cccc(-n2nccn2)c1
How it was run: as §1

[6] = compound: NC1(c2ccc(-c3nc4ccn5c(=O)[nH]nc5c4cc3-c3ccccc3)cc2)CCC1
How it was run: as §1

[7] = compound: NCC(=O)Nc1ccc(-n2nc(C(F)(F)F)cc2-c2ccc3c(ccc4ccccc43)c2)cc1
How it was run: as §1

vorinostat = compound: O=C(CCCCCCC(=O)Nc1ccccc1)NO [vorinostat]
How it was run: as §1

silmitasertib = compound: O=C(O)c1ccc2c(c1)nc(Nc1cccc(Cl)c1)c1ccncc12 [silmitasertib]
How it was run: as §1

[8] = compound: O=C1NC(=O)C(c2cnc3ccccn23)=C1c1cn2c3c(cc(F)cc13)CN(C(=O)N1CCCCC1)CC2
How it was run: as §1

entospletinib = compound: c1cn2cc(-c3ccc4cn[nH]c4c3)nc(Nc3ccc(N4CCOCC4)cc3)c2n1 [entospletinib]
How it was run: as §1

Measured: log2 fold change

IFT20 isoform 2 (UniProt Q8IY31)
inactive: nilotinib 0.021 | [1] -0.009 | dasatinib -0.055 | [2] 0.127 | [3] -0.052 | quisinostat 0.001 | tipifarnib -0.143 | [4] 0.013 | [5] -0.044 | [6] -0.026 | [7] 0.083 | vorinostat 0.065 | silmitasertib -0.061 | [8] 0 | entospletinib -0.15

ILF2 (UniProt Q12905)
inactive: nilotinib -0.002 | [1] 0.007 | dasatinib 0.003 | [2] 0.006 | [3] 0.001 | quisinostat -0.002 | tipifarnib 0.005 | [4] 0.018 | [5] -0.006 | [6] -0.022 | [7] 0.007 | vorinostat 0.08 | silmitasertib -0.011 | [8] 0.028 | entospletinib -0.003

INTS11 (UniProt Q5TA45)
inactive: nilotinib 0.015 | [1] 0.042 | dasatinib -0.015 | [2] -0.04 | [3] 0.033 | quisinostat 0.024 | tipifarnib 0.013 | [4] 0.026 | [5] -0.006 | [6] 0.008 | [7] -0.012 | vorinostat -0.111 | silmitasertib 0.028 | [8] -0.006 | entospletinib 0.025

IKZF1 (UniProt Q13422)
inactive: nilotinib -0.193 | [1] -0.058 | dasatinib 0.019 | [2] 0.011 | [3] -0.077 | quisinostat 0.026 | tipifarnib 0.066 | [4] 0.037 | [5] 0.029 | [6] -0.016 | [7] 0.003 | vorinostat -0.004 | silmitasertib -0.012 | [8] 0.005 | entospletinib 0

HSPG2 (UniProt P98160)
inactive: nilotinib -0.043 | [1] -0.052 | dasatinib -0.019 | [2] -0.08 | [3] 0.024 | quisinostat -0.043 | tipifarnib 0.061 | [4] -0.018 | [5] 0.029 | [6] -0.03 | [7] -0.032 | vorinostat 0.088 | silmitasertib -0.016 | [8] -0.022 | entospletinib -0.024

HTATIP2 isoform 3 (UniProt Q9BUP3)
inactive: nilotinib -0.002 | [1] 0.004 | dasatinib 0.031 | [2] -0.005 | [3] 0.006 | quisinostat -0.07 | tipifarnib -0.05 | [4] 0.035 | [5] 0.026 | [6] -0.004 | [7] 0.023 | vorinostat -0.245 | silmitasertib 0.047 | [8] -0.02 | entospletinib 0.007

HUWE1 (UniProt Q7Z6Z7)
inactive: nilotinib 0.02 | [1] 0.004 | dasatinib -0.011 | [2] -0.001 | [3] 0.014 | quisinostat 0.001 | tipifarnib -0.002 | [4] 0.01 | [5] -0.004 | [6] 0 | [7] 0.011 | vorinostat -0.035 | silmitasertib 0.004 | [8] -0.009 | entospletinib 0.003

IFT80 isoform 3 (UniProt Q9P2H3)
inactive: nilotinib 0.072 | [1] 0.034 | dasatinib -0.233 | [2] 0 | [3] -0.01 | quisinostat 0.058 | tipifarnib -0.023 | [4] -0.024 | [5] 0.139 | [6] -0.031 | [7] 0.197 | vorinostat -0.021 | silmitasertib 0.098 | [8] -0.007 | entospletinib -0.033

HTRA3 (UniProt P83110)
inactive: nilotinib -0.172 | [1] 0.021 | [2] -0.184 | tipifarnib 0

IGHM isoform 2 (UniProt P01871)
inactive: nilotinib 0.147 | [1] 0.227 | dasatinib -1.6 | [2] -0.064 | [3] 0.407 | tipifarnib -0.106

IFIT3 (UniProt O14879)
inactive: dasatinib -0.033 | [3] -0.079 | quisinostat -0.072 | [4] -0.083 | [6] -0.154 | vorinostat -0.08 | silmitasertib -0.12 | [8] 0.157 | entospletinib 0.121

ING5 (UniProt Q8WYH8)
inactive: nilotinib 0.05 | [1] -0.107 | dasatinib -0.165 | [2] 0.167 | [3] -0.035 | tipifarnib 0.016 | [5] 0.116 | [6] -0.144 | vorinostat 0.088 | silmitasertib -0.034 | entospletinib -0.09

IGKC (UniProt P01834)
inactive: nilotinib 0.008 | [1] 0.007 | dasatinib 0.023 | [2] 0.015 | [3] 0.35 | tipifarnib -0.192 | [5] -0.124 | [6] 0.762 | vorinostat 0.119 | silmitasertib 0.008 | entospletinib -0.303

Reprinted at random: two entries already listed, in no set order.
ING5 (UniProt Q8WYH8)
inactive: nilotinib 0.05 | [1] -0.107 | dasatinib -0.165 | [2] 0.167 | [3] -0.035 | tipifarnib 0.016 | [5] 0.116 | [6] -0.144 | vorinostat 0.088 | silmitasertib -0.034 | entospletinib -0.09

HTRA3 (UniProt P83110)
inactive: nilotinib -0.172 | [1] 0.021 | [2] -0.184 | tipifarnib 0

Next part:

IGKV3-20 (UniProt P01619)
inactive: dasatinib -0.873 | [3] 0.461

IFT52 (UniProt Q9Y366)
inactive: nilotinib 0.049 | [1] 0.02 | [2] -0.017 | quisinostat -0.023 | tipifarnib -0.017 | [4] -0.007 | [6] -0.006 | vorinostat 0.219 | silmitasertib -0.157 | [8] -0.186

IFT46 isoform 2 (UniProt Q9NQC8)
inactive: nilotinib 0.043 | [1] -0.044 | [2] -0.271 | quisinostat 0.015 | tipifarnib -0.263 | [4] -0.023 | [5] 0.147 | [7] 0.068 | [8] 0.103 | entospletinib 0.002

INPP5E (UniProt Q9NRR6)
inactive: nilotinib 0.041 | [1] -0.051 | [2] -0.125 | quisinostat -0.134 | tipifarnib -0.089 | [4] 0.194 | [6] -0.181 | vorinostat 0.272 | silmitasertib -0.089 | [8] 0.112

IFRD2 isoform 2 (UniProt Q12894)
inactive: dasatinib 0.021 | [3] -0.014 | quisinostat -0.002 | [4] 0.075 | [5] 0.004 | [6] -0.004 | [7] 0.038 | vorinostat 0.188 | silmitasertib -0.043 | [8] 0.037 | entospletinib 0.004

ING1 (UniProt Q9UK53)
inactive: dasatinib 0.1 | [3] 0.069 | quisinostat -0.009 | [4] 0.017 | [6] 0.006 | vorinostat 0.144 | silmitasertib -0.081 | [8] 0.073

IER3IP1 (UniProt Q9Y5U9)
inactive: nilotinib -0.062 | [1] 0.073 | dasatinib 0.009 | [2] 0.057 | [3] 0.007 | tipifarnib -0.279 | [5] 0.041 | [6] -0.129 | [7] 0.015 | vorinostat 0.091 | silmitasertib 0.007 | entospletinib -0.007

IFT43 (UniProt Q96FT9)
inactive: dasatinib 0.017 | [3] -0.016 | quisinostat -0.097 | [4] -0.036 | [6] -0.303 | [7] -0.198 | vorinostat 0.022 | silmitasertib 0.249 | [8] 0.098

ILF3 (UniProt Q12906)
inactive: dasatinib 0.028 | [3] -0.112 | quisinostat -0.033 | [4] -0.001 | [5] -0.097 | [6] -0.047 | [7] 0.081 | vorinostat -0.005 | silmitasertib -0.259 | [8] -0.044 | entospletinib 0.144

HYKK (UniProt A2RU49)
inactive: nilotinib 0.067 | [1] 0.071 | [2] 0.075 | quisinostat -0.051 | tipifarnib -0.123 | [4] 0.122 | [5] -0.033 | [6] -0.057 | vorinostat -0.235 | silmitasertib 0.158 | [8] -0.023 | entospletinib -0.09

IMPA2 (UniProt O14732)
inactive: dasatinib -0.004 | [3] 0.084 | quisinostat -0.002 | [4] -0.026 | [5] 0.011 | [6] 0.027 | [7] -0.166 | vorinostat 0 | silmitasertib 0.008 | [8] -0.062 | entospletinib -0.01

HUWE1 (UniProt H0Y659)
inactive: dasatinib -0.088 | [3] 0.171

IFT172 (UniProt Q9UG01)
inactive: nilotinib -0.081 | [1] 0.156 | dasatinib -0.269 | [2] -0.12 | [3] 0.231 | tipifarnib -0.068 | [6] 0.004 | [7] 0.068 | vorinostat -0.42 | silmitasertib -0.1

INCENP (UniProt Q9NQS7)
inactive: dasatinib -0.134 | [3] 0.106

ICMT (UniProt O60725)
inactive: nilotinib 0.076 | [1] 0.024 | dasatinib 0.03 | [2] 0.034 | [3] 0.069 | quisinostat 0 | tipifarnib -0.058 | [4] -0.041 | [7] -0.055 | [8] 0.11 | entospletinib -0.016

IL17RA (UniProt Q96F46)
inactive: dasatinib 0.078 | [3] -0.003 | quisinostat 0.282 | [4] 0.039 | [5] -0.129 | [8] 0.083 | entospletinib 0.079

INO80C isoform 4 (UniProt Q6PI98)
inactive: nilotinib 0.208 | [1] -0.213 | dasatinib 0.04 | [2] -0.046 | [3] -0.037 | tipifarnib 0.073 | [5] -0.129
